# PubChem BioAssay AID743121 – NCATS, 2013
# Screen: 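Partners whose loss is lethal together with topoisomerase I blockade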 (primary screen)
# Cell system: MDA-MB-231 cells, a human breast cancer line
# Reagents: single siRNA against human genes, 20 nM siRNA (0.8 pmol per well)
# Time to read-out: 120 h (drug added 48 h after transfection, read 72 h later)
# Conditions: camptothecin 20 nM (about EC30) for 72 h; vehicle 0.1% DMSO in parallel plates
# Detection: 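CellTiter-Glo ATP signal, scaled to control siRNA as percent viability; sensitisation given as log2 of untreated divided by camptothecin-treated viability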
# Scale: log2 vehicle/camptothecin viability: higher = stronger sensitisation to camptothecin; viability with camptothecin: higher = more viable cells
# Active means: 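Active genes have an RSA gene-level p-value below 0.001, computed from the ratios of their separate siRNAs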
# Here is a random part of about 26,000 reagents. Of all reagents, 167 (0.63%) were called active. 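Calls are per gene from RSA p-values that are not deposited; an individual active-marked siRNA can sensitise only weakly.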 Not all columns of the deposit are shown. No sequences are given here.
target,PubChem SID,log2 vehicle/camptothecin viability,viability with camptothecin (% of control),outcome
MRGPRE,SID164563332,0.0974,68.5,inactive
MRGPRE,SID164563333,-0.132,87.8,inactive
MRGPRE,SID164563334,0.216,51,inactive
RNF181,SID164472841,-0.139,110,inactive
RNF181,SID164472842,-0.15,101,inactive
RNF181,SID164472844,-0.214,123,inactive
RNF181,SID164472845,-0.168,66.6,inactive
SIGLEC8,SID164462852,-0.169,98.9,inactive
SIGLEC8,SID164462853,-0.301,89.4,inactive
SIGLEC8,SID164462854,0.952,10.9,inactive
SIGLEC8,SID164462856,0.0207,58.3,inactive
GPR20,SID164367334,-0.357,93.2,inactive
GPR20,SID164367335,-0.261,69.9,inactive
GPR20,SID164367336,-0.205,114,inactive
GPR20,SID164367337,0.546,37.8,inactive
SMYD2,SID164491961,-0.0929,105,inactive
SMYD2,SID164491962,0.134,101,inactive
SMYD2,SID164491964,-0.248,49.5,inactive
SMYD2,SID164491965,-0.447,96.2,inactive
DNMT3B,SID164361943,0.119,72.2,inactive
DNMT3B,SID164361944,-0.0548,84.7,inactive
DNMT3B,SID164361946,0.641,31.9,inactive
DNMT3B,SID164361948,-0.121,50.1,inactive
ARSL,SID164354226,0.182,79.5,inactive
ARSL,SID164354227,0.0979,84.9,inactive
ARSL,SID164354229,0.00304,13.8,inactive
ARSL,SID164354230,-0.0422,106,inactive
PPP3CB,SID164382278,-0.203,103,inactive
PPP3CB,SID164382282,0.219,61.6,inactive
PPP3CB,SID164382285,0.0501,92.6,inactive
PPP3CB,SID164382287,-0.443,117,inactive
ITLN2,SID164572775,-0.19,62.4,inactive
ITLN2,SID164572777,0.0528,72.5,inactive
ITLN2,SID164572778,-0.192,107,inactive
ITLN2,SID164572781,-0.323,91.2,inactive
BTN2A1,SID164415689,-0.238,79.3,inactive
BTN2A1,SID164415690,0.244,68.9,inactive
BTN2A1,SID164415691,0.0564,58.9,inactive
BTN2A1,SID164415695,-0.357,40.8,inactive
CRYZ,SID164359936,0.0121,120,inactive
CRYZ,SID164359939,0.218,63.1,inactive
CRYZ,SID164359940,-0.00812,39.3,inactive
TAPT1,SID164586150,0.308,73.3,inactive
TAPT1,SID164586151,-0.124,56.6,inactive
TAPT1,SID164586153,0.0335,83.1,inactive
TAPT1,SID164586158,0.273,20,inactive

Part of the list above, reformatted.
{"target": "CRYZ", "PubChem SID": "SID164359940", "log2 vehicle/camptothecin viability": -0.00812, "viability with camptothecin (% of control)": 39.3, "outcome": "inactive"}
{"target": "TAPT1", "PubChem SID": "SID164586150", "log2 vehicle/camptothecin viability": 0.308, "viability with camptothecin (% of control)": 73.3, "outcome": "inactive"}
{"target": "TAPT1", "PubChem SID": "SID164586151", "log2 vehicle/camptothecin viability": -0.124, "viability with camptothecin (% of control)": 56.6, "outcome": "inactive"}
{"target": "TAPT1", "PubChem SID": "SID164586153", "log2 vehicle/camptothecin viability": 0.0335, "viability with camptothecin (% of control)": 83.1, "outcome": "inactive"}
